Experimental data: PubChem BioAssay AID1259308 (NCATS, 2017)

Test: 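Knock-downs that increase output of a recombinant reporter protein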 (primary screen)
Cell system: human HEK293 embryonic kidney cells stably expressing firefly luciferase (HEK-CMV-Luc2-Hygro)
Reagent: single siRNA against human genes, 0.8 pmol siRNA per well
Time to read-out: 72 h
Measurement: 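Reporter luminescence and viable-cell signal on separate replicate plates, given as percent of non-targeting control and median/MAD z-scores, plus per-cell luciferase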
Reading the numbers: total luciferase, z-score and total luciferase, % of control: higher = more reporter protein produced; luciferase per cell, z-score: higher = more reporter output per viable cell; viable cells, % of control: higher = more viable cells
Hit rule: 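An siRNA counts as active if its total luciferase robust z-score exceeds 3; genes with two or more such siRNAs out of three were retested with fresh siRNAs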
Meaning of the calls: active = raised luciferase; inactive = no rise
The deposit covers about 59,000 reagents; this is an unselected part. About 1,510 of all reagents (2.6%) count as active. 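Calls use total luciferase alone and ignore viability, so some active siRNAs may act by altering cell number.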 The numbers tell different reagents against one gene apart.

| gene | siRNA no. | total luciferase, z-score | total luciferase, % of control | luciferase per cell, z-score | viable cells, % of control | outcome |
| --- | --- | --- | --- | --- | --- | --- |
| LRAT (lecithin retinol acyltransferase) | 1 | -0.0619 | 80.7 | 0.139 | 86.9 | inactive |
| LRAT (lecithin retinol acyltransferase) | 2 | -1.13 | 59.4 | -1.44 | 96.9 | inactive |
| LRAT (lecithin retinol acyltransferase) | 3 | -0.374 | 74.4 | -0.437 | 93.3 | inactive |
| RTTN (rotatin) | 1 | 0.698 | 95.8 | 0.334 | 98 | inactive |
| RTTN (rotatin) | 2 | -0.334 | 75.2 | -0.672 | 100 | inactive |
| RTTN (rotatin) | 3 | -1.08 | 60.5 | -1 | 88 | inactive |
| NOS1 (nitric oxide synthase 1) | 1 | -0.0503 | 80.9 | 0.142 | 87.1 | inactive |
| NOS1 (nitric oxide synthase 1) | 2 | -1.07 | 60.6 | 1.06 | 51.2 | inactive |
| NOS1 (nitric oxide synthase 1) | 3 | -1.55 | 51 | -1.71 | 89.5 | inactive |
| PRPH2 (peripherin 2) | 1 | 3.16 | 145 | 3.19 | 69.9 | active |
| PRPH2 (peripherin 2) | 2 | -0.943 | 63.1 | -0.765 | 86.3 | inactive |
| PRPH2 (peripherin 2) | 3 | -0.546 | 71 | -1.32 | 112 | inactive |
| JMJD8 (jumonji domain containing 8) | 1 | 0.355 | 89 | 1.02 | 76.1 | inactive |
| JMJD8 (jumonji domain containing 8) | 2 | 4.77 | 177 | 3.25 | 83.9 | active |
| JMJD8 (jumonji domain containing 8) | 3 | 0.0915 | 83.7 | 0.173 | 89.4 | inactive |
| SRGAP3 (SLIT-ROBO Rho GTPase activating protein 3) | 1 | 2.72 | 136 | 2.1 | 87.3 | inactive |
| SRGAP3 (SLIT-ROBO Rho GTPase activating protein 3) | 2 | -0.637 | 69.2 | -0.0922 | 79.2 | inactive |
| SRGAP3 (SLIT-ROBO Rho GTPase activating protein 3) | 3 | 0.31 | 88 | 0.329 | 90.2 | inactive |
| FIRRM (FIGNL1 interacting regulator of recombination and mitosis) | 1 | -0.0051 | 81.8 | -0.14 | 94.8 | inactive |
| FIRRM (FIGNL1 interacting regulator of recombination and mitosis) | 2 | 0.05 | 82.9 | -0.166 | 96.7 | inactive |
| FIRRM (FIGNL1 interacting regulator of recombination and mitosis) | 3 | -0.903 | 63.9 | -1.42 | 104 | inactive |
| NUDT22 (nudix hydrolase 22) | 1 | 1.4 | 110 | 1.98 | 72.8 | inactive |
| NUDT22 (nudix hydrolase 22) | 2 | 2.36 | 129 | 2.03 | 84.3 | inactive |
| NUDT22 (nudix hydrolase 22) | 3 | -0.0825 | 80.2 | 0.755 | 73.5 | inactive |

As entered above.
Under “total luciferase, % of control”, FIRRM (FIGNL1 interacting regulator of recombination and mitosis) #1 reads 81.8
NOS1 (nitric oxide synthase 1) #3, viable cells, % of control = 89.5
FIRRM (FIGNL1 interacting regulator of recombination and mitosis) #3, total luciferase, z-score → -0.903
Under “total luciferase, z-score”, SRGAP3 (SLIT-ROBO Rho GTPase activating protein 3) #3 shows 0.31

Additional records:
| gene | siRNA no. | total luciferase, z-score | total luciferase, % of control | luciferase per cell, z-score | viable cells, % of control | outcome |
| --- | --- | --- | --- | --- | --- | --- |
| ITGB1BP1 (integrin subunit beta 1 binding protein 1) | 1 | 0.406 | 90 | -0.298 | 109 | inactive |
| ITGB1BP1 (integrin subunit beta 1 binding protein 1) | 2 | -1.58 | 50.4 | -1.73 | 89 | inactive |
| ITGB1BP1 (integrin subunit beta 1 binding protein 1) | 3 | -0.416 | 73.6 | 0.0423 | 81.3 | inactive |
| MKNK1 (MAPK interacting serine/threonine kinase 1) | 1 | 0.113 | 84.1 | 1.75 | 59.3 | inactive |
| MKNK1 (MAPK interacting serine/threonine kinase 1) | 2 | 0.516 | 92.2 | 0.0719 | 101 | inactive |
| MKNK1 (MAPK interacting serine/threonine kinase 1) | 3 | -0.323 | 75.5 | -0.872 | 106 | inactive |
| ZNF233 (zinc finger protein 233) | 1 | -0.747 | 67 | -0.307 | 81.2 | inactive |
| ZNF233 (zinc finger protein 233) | 2 | 2.57 | 133 | 2.53 | 76.2 | inactive |
| ZNF233 (zinc finger protein 233) | 3 | 1.41 | 110 | 1.12 | 91.6 | inactive |
| LOC651337 | 1 | -1.71 | 47.9 | -1.68 | 83.4 | inactive |
| LOC651337 | 2 | 0.517 | 92.2 | 0.475 | 90.9 | inactive |
| LOC651337 | 3 | 1.45 | 111 | 1.22 | 89.8 | inactive |
| MET (MET proto-oncogene, receptor tyrosine kinase) | 1 | -0.518 | 71.6 | -0.681 | 95.7 | inactive |
| MET (MET proto-oncogene, receptor tyrosine kinase) | 2 | 1.04 | 103 | 0.737 | 94.3 | inactive |
| MET (MET proto-oncogene, receptor tyrosine kinase) | 3 | -0.0112 | 81.7 | -0.491 | 104 | inactive |
| SP1 (Sp1 transcription factor) | 1 | -1.36 | 54.9 | -2.07 | 106 | inactive |
| SP1 (Sp1 transcription factor) | 2 | -1.02 | 61.5 | -1.12 | 92.3 | inactive |
| SP1 (Sp1 transcription factor) | 3 | -0.441 | 73.1 | -1.02 | 107 | inactive |
| WDR25 (WD repeat domain 25) | 1 | -0.987 | 62.3 | -0.863 | 87.3 | inactive |
| WDR25 (WD repeat domain 25) | 2 | 0.212 | 86.1 | -0.44 | 108 | inactive |
| WDR25 (WD repeat domain 25) | 3 | -0.3 | 75.9 | -0.773 | 104 | inactive |
| PDE12 (phosphodiesterase 12) | 1 | -0.27 | 76.5 | -0.166 | 89.3 | inactive |
| PDE12 (phosphodiesterase 12) | 2 | 0.587 | 93.6 | 1.77 | 65.5 | inactive |
| PDE12 (phosphodiesterase 12) | 3 | -1.77 | 46.6 | -2.56 | 102 | inactive |
| NDRG3 (NDRG family member 3) | 1 | -0.948 | 63 | -1.28 | 98.6 | inactive |
| NDRG3 (NDRG family member 3) | 2 | -0.912 | 63.7 | -1.02 | 93.2 | inactive |
| NDRG3 (NDRG family member 3) | 3 | -1.83 | 45.5 | -1 | 66.2 | inactive |
| ARFIP2 (ARF interacting protein 2) | 1 | -0.328 | 75.4 | -0.163 | 87.9 | inactive |
| ARFIP2 (ARF interacting protein 2) | 2 | 0.498 | 91.8 | 0.464 | 90.8 | inactive |
| ARFIP2 (ARF interacting protein 2) | 3 | -0.834 | 65.3 | -1.66 | 113 | inactive |
| FAM86C2P (family with sequence similarity 86 member C2, pseudogene) | 1 | 1.85 | 119 | 1.34 | 93.3 | inactive |
| FAM86C2P (family with sequence similarity 86 member C2, pseudogene) | 2 | 3.41 | 150 | 3.26 | 70.9 | active |
| FAM86C2P (family with sequence similarity 86 member C2, pseudogene) | 3 | 0.224 | 86.3 | -0.572 | 112 | inactive |
